Patent US20250326715A1, “NOVEL MAIN PROTEASE INHIBITORS, AND COMPOSITIONS AND METHODS THEREOF” (University of Massachusetts, priority 2023, published 2025)
Some of these results come from one statement about several compounds together. For part of these data: For at least one compound, name, drawing or mass did not settle the structure. Where a SMILES comes first, the peptide text is derived from it.

What was measured:
SARS-CoV-2 M^Pro = SARS-CoV-2 M^Pro (Severe acute respiratory syndrome coronavirus 2, UniProt P0DTD1); assay: Determination of IC50 values for SARS-CoV-2 M^Pro (fluorogenic peptide substrate, end-point); type: biochemical; conditions: probes lacking the alkyne vs D-FF(R/Cit)-CMKyne
SARS-CoV-2 = type: cell-based; conditions: A549-hACE2 EC50 vs M^Pro inhibition

NC(=O)NCCC[C@H](NC(=O)[C@H](Cc1ccccc1)NC(=O)[C@H](N)Cc1ccccc1)C(=O)CCl [D-FFCit-CMK] (HELM PEPTIDE1{[dF].F.[Cit].[ClC[*:1]]}$$$$V2.0)
fold less potent M^Pro inhibitor than alkyne parent (SARS-CoV-2 M^Pro): 4-5 fold

N=C(N)NCCC[C@H](NC(=O)[C@H](Cc1ccccc1)NC(=O)[C@H](N)Cc1ccccc1)C(=O)CCl [D-FFR-CMK] (HELM PEPTIDE1{[dF].F.R.[ClC[*:1]]}$$$$V2.0)
fold less potent M^Pro inhibitor than alkyne parent (SARS-CoV-2 M^Pro): 4-5 fold

CCOC(=O)C=CC(CC1CCNC1=O)NC(=O)C(Cc1ccccc1)NC(=O)C(N)Cc1ccccc1 (stereo not drawn) [SM141]
cellular EC50 lower than potency for M^Pro inhibition (SARS-CoV-2): more than 100 fold
